We go through 1 compound from ChEMBL document CHEMBL5338714, “Design, synthesis and biological evaluation of biphenyl-benzamides as potent FtsZ inhibitors” (Eur J Med Chem, 2022).

The test system of assay [1] is Escherichia coli. The assay is described as follows: Antibacterial activity against Escherichia coli 25922 assessed as bacterial growth inhibition incubated for 18 hrs by CLSI based broth microdilution method. The assay is classed as functional. The essentials: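 CLSI broth microdilution. Log-phase bacteria in Mueller Hinton broth added to 2-fold serial dilutions spanning 128 to 0.25 or 2 to 0.004 µg/mL. Incubated aerobically for 18 h at 37 °C, then OD600 read. MIC is the lowest concentration giving ≥90% growth inhibition; three independent assays.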
(In general: In broth dilution the organism is exposed to a series of concentrations in liquid medium.)

The subject of assay [2] is Pseudomonas aeruginosa. Description: Antibacterial activity against Pseudomonas aeruginosa 15690 assessed as bacterial growth inhibition incubated for 18 hrs by CLSI based broth microdilution method. The assay is classed as functional. The essentials: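 Broth microdilution to CLSI guidelines. Log-phase bacteria grown in Mueller Hinton broth, diluted, then exposed to 2-fold serial dilutions of compound (128 to 0.25 µg/mL or 2 to 0.004 µg/mL). Incubated aerobically 18 h at 37 °C. Growth read as OD600. MIC = lowest concentration giving ≥90% growth inhibition. Three independent assays.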

Usually MIC stands for the lowest concentration found to suppress growth.

Molecules are shown by their SMILES.

Take `CN[C@H](CC(C)C)C(=O)N[C@H]1C(=O)N[C@@H](CC(N)=O)C(=O)N[C@H]2C(=O)N[C@H]3C(=O)N[C@H](C(=O)N[C@H](C(=O)O)c4cc(O)cc(O)c4-c4cc3ccc4O)[C@H](O)c3ccc(c(Cl)c3)Oc3cc2cc(c3O[C@@H]2O[C@H](CO)[C@@H](O)[C@H](O)[C@H]2O[C@H]2C[C@](C)(N)[C@H](O)[C@H](C)O2)Oc2ccc(cc2Cl)[C@H]1O` [VANCOMYCIN]: the minimal inhibitory concentration (MIC) in assay [1] and in assay [2] was over 128 µg/mL in each case.
